At least one structure is not confirmed: it was looked up by name or label, or the drawing left a doubt.
How the values were obtained:
Format in all cases: cell-based
IL-29 = IL-29 release in dermal fibroblasts treated with P. acnes lysate (ELISA); details: 6 hours; treatments other than 1×10^10 ASH; DEX 100 nM
IL-10 = IL-10 release in dermal fibroblasts treated with P. acnes lysate (ELISA); details: 6 hours; 100 nM
IL-4 = IL-4 release in dermal fibroblasts treated with P. acnes lysate (ELISA); details: 6 hours; 100 nM
EGF = EGF protein levels in dermal fibroblasts treated with P. acnes lysate (ELISA); details: 6 hours; 100 nM

C[C@@H]1C[C@H]2[C@@H]3CCC4=CC(=O)C=C[C@]4(C)[C@@]3(F)[C@@H](O)C[C@]2(C)[C@@]1(O)C(=O)CO [DEX, Dexamethasone]
P. acnes lysate induced reduction in IL-29 release (IL-29): did not show the same recovery
P. acnes lysate induced 2-fold increase in IL-10 release (IL-10): significant recovery to baseline
P. acnes lysate induced slight decrease in IL-4 release (IL-4): did not show a recovery to baseline
P. acnes lysate induced 5-fold increase in EGF protein levels (EGF): not

— patent publication US20220323532A1, “COMPOSITIONS COMPRISING PLANT-DERIVED EXOSOME-LIKE NANOVESICLES OR EXOSOMES AND METHODS OF USE THEREOF” (priority 2021, published 2022)
